From PubChem BioAssay AID1259354 (Paczesny and Yang Labs, IUPUI and University of Michigan, 2018)
“And” between values parts separate entries of the source, which are not always exact repeats. Equal entries are not always repeated. Hit rate of the full screen: of about 78,000 compounds, about 1,800 (2.3%) were called active. The inconclusive results got no clear call from the source; some entries with a clear call stand among them for comparison. No stated cut-off is given here; in the data, active means inhibition above about 30%; inconclusive means mostly about 10% to 28%; inactive means weaker than that.

Amino acid sequences for entries named in this document (tags omitted). A change or cut given only in a name is not applied to a line headed by its entry.
UniProt Q01638: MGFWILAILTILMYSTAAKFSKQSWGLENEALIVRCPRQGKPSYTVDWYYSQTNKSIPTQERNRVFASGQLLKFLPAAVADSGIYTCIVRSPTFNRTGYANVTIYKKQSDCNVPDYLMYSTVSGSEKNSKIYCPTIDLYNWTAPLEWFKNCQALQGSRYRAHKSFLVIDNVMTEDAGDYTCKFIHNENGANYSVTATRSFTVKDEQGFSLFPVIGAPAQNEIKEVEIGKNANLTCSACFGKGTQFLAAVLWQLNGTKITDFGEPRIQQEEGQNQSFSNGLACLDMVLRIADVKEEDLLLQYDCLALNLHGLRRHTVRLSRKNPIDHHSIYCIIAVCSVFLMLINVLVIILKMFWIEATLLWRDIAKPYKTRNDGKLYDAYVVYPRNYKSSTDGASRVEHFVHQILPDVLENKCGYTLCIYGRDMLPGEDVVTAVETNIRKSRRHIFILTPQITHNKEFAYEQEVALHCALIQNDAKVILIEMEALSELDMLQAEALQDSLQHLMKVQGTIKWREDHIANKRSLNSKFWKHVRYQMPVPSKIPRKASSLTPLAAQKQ

Target: Interleukin-1 receptor-like 1 (Homo sapiens) (UniProt Q01638)
Experiment: blocks human ST2 binding to IL-33, primary screen, biochemical, AlphaLISA (AID 1259354)
Details: AlphaLISA ST2-Fc/biotin-IL-33 interaction, 1 h; at 17 µM, stronger effect = higher value

| SMILES | inhibition |
| --- | --- |
| O=C(CN1C(=O)C2CC=CCC2C1=O)N1CCC2(CC1)OCCO2 (configuration not stated) | inactive |
| CSc1cccc(CN(C)C(=O)CC2COCCN2)c1 (configuration not stated) | inconclusive: 19% |
| Cc1ccc(-c2noc(CCC(=O)NC(C)C)n2)cc1 | inconclusive: 13% |
| CC1=CC(=O)C(C(C)C)=C/C1=N\OC(=O)c1ccc(C)cc1 | inconclusive: 12% |
| COc1ccc(Nc2ncnc3c2cnn3-c2cccc(C)c2)cc1Cl | inactive |
| Cc1ccc2c(c1)sc(=NC(=O)c1ccc(S(=O)(=O)N3CCCCC3)cc1)n2C | inconclusive: 15% |
| Cc1nc(NCCSc2nnnn2C)cc(C(C)C)n1 | inconclusive: 13% |
| O=C(Nc1ccc(Cl)cc1)NC1CCCC1 | inconclusive: 11% |
| O=C(Cn1c(=O)n(-c2ccc(F)cc2)c(=O)c2sccc21)NCc1ccco1 | inactive |
| CCOC(=O)C1(C/C=C/c2ccccc2)CCCN(C(=O)c2cccnc2SC)C1 (configuration not stated) | inconclusive: 15% |
| COc1ccc(C(=O)Nc2c3c(nn2-c2ccc(F)cc2)CS(=O)C3)cc1 (configuration not stated) | inactive |
| COc1cc(S(=O)(=O)N2CCN(c3nc(C)cc(Nc4ccccc4)n3)CC2)c(C)cc1C | inconclusive: 17% |
| COc1ccc(CNC(=O)c2cnc3n(c2=O)CCS3)cc1 | inconclusive: 11% |
| COC(=O)c1ccc(-c2noc(CN(C)Cc3cccc(-n4nc(C)cc4C)c3)n2)cc1 | inactive |
| O=C(NCCSc1c(-c2ccc(F)cc2)[nH]c2ccccc12)c1ccco1 | inconclusive: 18% |
| CC(C)(C)c1ccc(-c2cc(C[C@H]3CNCC[C@H]3CC(=O)N3CCN(c4ccc(F)cc4)CC3)no2)cc1 | inconclusive: 13% |
| Cc1c(-c2ccccc2F)[nH]c2ccc(CNS(=O)(=O)N3CCCC3)cc12 | inconclusive: 22% |
| O=C(Nc1ccc(-c2ccc([N+](=O)[O-])cc2)cc1)c1ccc(F)cc1 | inactive |
| Cc1nnsc1CN(C)C(=O)CCC(=O)NC1CCCC1 | active: 97% |
| Cn1c(=O)c2nc(-c3nc4ccccc4[nH]3)c(N)nc2n(C)c1=O | inconclusive: 16% |
| O=C1C(N2CCOCC2)=CC(=NS(=O)(=O)c2ccccc2)c2ccccc21 | active: 41% |
| O=C(CN1C(=O)/C(=C/c2ccccc2F)Sc2ccccc21)NCCN1CCCC1 | inconclusive: 14% |
| COc1ccc(NC(=O)CCCn2c(=O)c3sccc3n(CC(N)=O)c2=O)cc1 | inactive |

Another view of part of the listing above.
COc1ccc(Nc2ncnc3c2cnn3-c2cccc(C)c2)cc1Cl
  inhibition: inactive
O=C(Nc1ccc(Cl)cc1)NC1CCCC1
  inhibition: inconclusive: 11%
O=C(NCCSc1c(-c2ccc(F)cc2)[nH]c2ccccc12)c1ccco1
  inhibition: inconclusive: 18%

Following part

| SMILES | inhibition |
| --- | --- |
| COc1cc(C(=O)Nc2ccc(O)c(C)c2)cc(OC)c1OC | inactive |
| Cc1sc(NC(=O)c2cc3cc(Br)ccc3oc2=O)nc1-c1ccccc1 | inconclusive: 14% |
| O=C(Nc1ccc2nsnc2c1)NC1CC1 | inconclusive: 10% |
| CCCSc1nc2nc3c(cc2c(=O)n1-c1ccc(OC)cc1)COC(C)(C)C3 | active: 44% |
| COc1ccc(N=Cc2c(O)ccc3oc4c(c23)CCCC4)cc1 | active: 40% |
| CC(=O)Nc1cccc2c1sc1nc3n(c(=O)c12)CCCCC3 | inactive |
| CC(=O)Nc1ccc(-c2cn(CCc3nc(C)c4c(n3)CCC4)nn2)cc1 | inconclusive: 13% |
| O=C(c1ccc(NCC2CCOC2)nc1)N1CCC(CCc2ccccc2)CC1 (configuration not stated) | inconclusive: 13% |
| Cc1cc(Br)ccc1OCC(=O)NC1CC(C)(C)NC(C)(C)C1 | inactive |
| Cc1ccc(CN2CCCN(CC(=O)N3CCCC(C)C3)S2(=O)=O)cc1 (configuration not stated) | inconclusive: 10% |
| CCCCC1(C)OC(=O)C(=Cc2ccc(Br)o2)C(=O)O1 (configuration not stated) | active: 73% |
| CC(=O)NC1=NN(C(C)=O)C(C)(c2cccc(Br)c2)S1 (configuration not stated) | inactive |
| O=C(Nc1cccc(F)c1)Nc1ccc2n(c1=O)C[C@H]1C[C@@H]2CN(C(=O)c2ccc(F)cc2)C1 | inconclusive: 12% |
| Nc1c(S(=O)(=O)O)cc(Br)c2c1C(=O)c1ccccc1C2=O | inconclusive: 13% |
| Cc1cc(C)n2ncc(CN3CCCC3c3ccccn3)c2n1 (configuration not stated) | inconclusive: 16% |
| O=C(CCc1nc2sc3c(c2c(=O)[nH]1)CCCC3)NCc1ccccn1 | inactive |
| COc1ccccc1NC(=O)/C(=C\c1ccc(OC)c(OC)c1)NC(=O)c1ccccc1 | inconclusive: 18% |
| CC(=O)Nc1nnc(SCC(=O)Nc2ccc(C(C)C)cc2)s1 | inactive |
| COc1cccc(C2CC(c3ccccc3)=NN2S(=O)(=O)c2ccccc2)c1OC (configuration not stated) | inconclusive: 21% |
| Cc1ccc(-c2nc3sccn3c2Nc2ccccc2C)cc1 | inactive |
| Cc1onc(-c2ccccc2Cl)c1C(=O)N(c1ccc(C(C)C)cc1)C1C=CS(=O)(=O)C1 (configuration not stated) | inactive |
| COc1ccc(-c2nnc(NC(=O)c3ccc(S(=O)(=O)N4COCC4(C)C)cc3)o2)cc1 | inconclusive: 10% |
| c1ccc(Cn2c(SCc3ncn[nH]3)nc3ccccc32)cc1 | inconclusive: 10% |

Shown as comma-separated lines: 2 of the compounds above
SMILES,inhibition
COc1cccc(C2CC(c3ccccc3)=NN2S(=O)(=O)c2ccccc2)c1OC (configuration not stated),inconclusive: 21%
Cc1ccc(-c2nc3sccn3c2Nc2ccccc2C)cc1,inactive

Continuation.

| SMILES | inhibition |
| --- | --- |
| COc1c(F)cc(-c2c(-c3ccccc3)ncn2CCNC(C)=O)cc1F | inconclusive: 11% |
| O=C1C2C3CCC(C3)C2C(=O)N1Cc1ccccc1 (configuration not stated) | inactive |
| COc1ccc(S(=O)(=O)NCCSc2ccc(Cl)cc2)cc1 | inconclusive: 25% |
| Cc1cc(Nc2ccccc2)nc(Nc2ccc(NC(=O)c3ccc(C)c(C)c3)cc2)n1 | inconclusive: 15% |
| O=c1[nH]c(-c2cccc(Cl)c2)nc2sc3c(c12)CCCC3 | inconclusive: 12% |
| S=C(NC1CCCCC1)N[C@H]1CO[C@H]2[C@@H]1OC[C@@H]2n1nnnc1-c1ccccc1 | inconclusive: 12% |
| CC(=O)N1N=C(c2c(-c3ccccc3)c3cc(Cl)ccc3[nH]c2=O)CC1c1ccccn1 (configuration not stated) | inconclusive: 10% |
| CC[C@H]1CN(C(=O)c2ccnc(Cl)c2)CC[C@H]1CC(=O)NCc1ccccc1 | inconclusive: 15% |
| COc1ccc(C(=O)CCC(=O)N2CCCC3(CC2)CN(C)C(=O)O3)cc1 (configuration not stated) | inconclusive: 22% |
| COc1ccccc1N1CCN(CC[C@H]2CN(C(=O)NC(C)C)CC[C@H]2CC(=O)O)CC1 | inconclusive: 27% |
| O=C(CCCN1C(=O)c2ccccc2C1=O)NC1CCCC1 | inconclusive: 12% |
| O=C(Nc1cccc(-c2cc3ccccc3[nH]2)c1)C1CCN(C(=O)c2ccco2)CC1 | inconclusive: 23% |
| COCC(=O)N1CCN(C(=O)NC(C)C)C[C@@H]1C(=O)N[C@@H](CC1CCCCC1)C(N)=O | inactive |
| Cc1nnc(NC(=O)CSc2nc3c(c(=O)n2-c2ccccc2)SCC3)s1 | inconclusive: 13% |
| CCCn1nc(C)cc1NC(=O)c1cccc(CN2CCC(=O)NCC2C)c1 (configuration not stated) | inconclusive: 16% |
| CCN(CC)CCNC(=O)c1ccc2c(c1)ncn2C1CCCC1 | inconclusive: 21% |
| CSc1ncc(C(=O)NCc2cc(C)cc3c(C)c(C)[nH]c23)cn1 | inconclusive: 10% |
| COc1cccc(-n2c(SCC(=O)N3CCCCC3)nc3c([nH]c4ccccc43)c2=O)c1 | inconclusive: 25% |
| COc1ccc(-n2ncc3c(Nc4ccc(C)cc4)ncnc32)cc1 | inactive |
| COc1ccc(CN2C[C@H](O)C[C@H]2c2nc(CS(=O)(=O)c3ccc(F)cc3)no2)cc1 | inconclusive: 22% |
| CS(=O)(=O)N(CC(=O)Nc1ccc(C(N)=O)cc1)c1ccc(Oc2ccccc2)cc1 | inactive |
| Cc1cnccc1CN(C)C(=O)c1ccc2cccnc2n1 | inactive |
| COc1ccccc1NC(=O)Nc1ccc2n(c1=O)C[C@H]1C[C@@H]2CN(C(=O)Cc2cccs2)C1 | inconclusive: 12% |

| SMILES | inhibition |
| --- | --- |
| Cc1cc(NC(=O)C2CC2)nc2c1c(=O)oc1ccccc12 | inactive |
| O=C(NCCO)c1cccc(I)c1 | inactive |
| COc1ccc2c(c1)C(C)=CC(C)(C)N2 | active: 42% |
| CCn1c(C(=O)O)c(CC(=O)Nc2ccc3c(c2)OCO3)c2ccccc21 | inactive |
| O=C(NC[C@H]1O[C@@H](CC(=O)N2CCN(c3ccccn3)CC2)[C@H](O)[C@@H]1O)Nc1cccc(F)c1 | inactive |
| Cc1ccc(Cn2ccc(NC(=O)c3cc(C4CC4)on3)n2)cc1 | inactive |
| Cc1ccc(NC(C)(C(=O)NCC(C)(C)CO)c2ccccc2)cc1 (configuration not stated) | inconclusive: 12% |
| CN(C(=O)CC1C(=O)NCCN1CC(c1ccccc1)c1ccccc1)C1CCOCC1 (configuration not stated) | inconclusive: 12% |
| OC(CCN1CCCCC1)(c1ccccc1)C1CCCCC1 (configuration not stated) | inconclusive: 14% |
| CC(CO)CN(Cc1ccccc1)C(=O)c1cccn1C (configuration not stated) | inconclusive: 13% |
| COc1ccc(N2CCCS2(=O)=O)cc1NC(=O)COc1ccc(C)cc1 | inconclusive: 12% |
| CC(=O)c1cccc(NC(=O)O[C@@H]2CO[C@H]3[C@@H]2OC[C@@H]3NC(=O)NC2CCCCC2)c1 | inconclusive: 10% |
| CCOc1ccc(OCC)c(S(=O)(=O)N2CCN(c3nc(C)cc(N4CCCCC4)n3)CC2)c1 | inconclusive: 17% |
| COc1cccc(C2CC(c3cccc(Br)c3)n3ncnc3N2)c1 (configuration not stated) | inconclusive: 21% |
| c1ccc(-c2nc(N3CCCC3)c3ccccc3n2)cc1 | inactive |
| CCN(C(=O)c1cnc2n(c1=O)CCS2)c1ccccc1 | inactive |
| COc1cccc(C(=O)Nc2cc(N3CCCS3(=O)=O)ccc2C)c1OC | inconclusive: 22% |
| CN1CC2(CCCN(C(=O)C3(c4ccc(Cl)cc4)CCC3)CC2)OC1=O (configuration not stated) | inconclusive: 14% |
| CN(C)c1ccc(CNc2ccc3c(c2)ncn3C)cc1 | active: 46% and inconclusive: 20% |
| CC1CCN(C(=O)CSc2c3c(nc4ccccc24)CCC3)CC1 | inconclusive: 22% |
| Cc1ccccc1C(=O)NC(C)CC1=CCCN(CC(N)=O)C1 (configuration not stated) | inconclusive: 11% |
| CC(=O)c1ccc(NC(=O)O[C@@H]2CO[C@H]3[C@@H]2OC[C@@H]3NC(=O)Nc2ccccc2)cc1 | inconclusive: 14% |
| O=C(NC1CCCCC1NC(=O)C1CC1c1ccccc1)C1CC1c1ccccc1 (configuration not stated) | inactive |

In the list so far, 2 contain a COOH group:

| SMILES | inhibition |
| --- | --- |
| COc1ccccc1N1CCN(CC[C@H]2CN(C(=O)NC(C)C)CC[C@H]2CC(=O)O)CC1 | inconclusive: 27% |
| CCn1c(C(=O)O)c(CC(=O)Nc2ccc3c(c2)OCO3)c2ccccc21 | inactive |
